Like-named read-outs stand apart in the source and are kept apart here. No constants are given. Whether binding was seen depends on the method and setting.
Columns and labels:
[1] = molecular target: His-tagged CRIPT^8C-S (cysteine-lacking mutant) expressed in HeLa cells (human) (UniProt Q9P021); experiment: non-reducing and reducing gel electrophoresis with anti-His immunoblot
[2] = molecular target: His-tagged CRIPT^8C-S (cysteine-lacking mutant) expressed in HeLa cells (human) (UniProt Q9P021)

Amino acid sequences for entries named in this document (tags omitted). A change or cut given only in a name is not applied to a line headed by its entry. Chains listed by the source or under a name are the forms on record and can include a tag or linker.
His-tagged CRIPT^8C-S (cysteine-lacking mutant) expressed in HeLa cells (Q9P021, form named): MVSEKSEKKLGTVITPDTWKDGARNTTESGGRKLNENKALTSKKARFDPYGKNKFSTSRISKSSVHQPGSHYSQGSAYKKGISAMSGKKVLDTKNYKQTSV

- binding [1]: no binding
- binding [2]: no binding (tested: 2µg in one gel well)
Substance: His-tagged CRIPT^8C-S (cysteine-lacking mutant) expressed in HeLa cells (from UniProt Q9P021 1-101)

Reference: article doi:10.1101/869123
